In ChEMBL document CHEMBL4316593 (Eur J Med Chem, 2019):
The source gives many values for each of these; only a part stands here.

Columns and labels:
Type in all cases: cell-based
Details in all cases: U-87MG ATCC
[1] = Inhibition of RTK/PI3K/AKT/mTOR signaling in human U87 cells assessed as down regulation of ZNF714 gene expression at cytotoxic IC50 measured after 48 hrs relative to control
[2] = Inhibition of RTK/PI3K/AKT/mTOR signaling in human U87 cells assessed as down regulation of ZFYVE26 gene expression at cytotoxic IC50 measured after 48 hrs relative to control
[3] = Inhibition of RTK/PI3K/AKT/mTOR signaling in human U87 cells assessed as down regulation of SRD5A1 gene expression at cytotoxic IC50 measured after 48 hrs relative to control
[4] = Inhibition of RTK/PI3K/AKT/mTOR signaling in human U87 cells assessed as down regulation of ZNF800 gene expression at cytotoxic IC50 measured after 48 hrs relative to control
[5] = Inhibition of RTK/PI3K/AKT/mTOR signaling in human U87 cells assessed as down regulation of GABARAPL1 gene expression at cytotoxic IC50 measured after 48 hrs relative to control
[6] = Inhibition of RTK/PI3K/AKT/mTOR signaling in human U87 cells assessed as up regulation of aspartyl-tRNA synthetase gene expression at cytotoxic IC50 measured after 48 hrs relative to control
[7] = Inhibition of RTK/PI3K/AKT/mTOR signaling in human U87 cells assessed as down regulation of MTMR2 gene expression at cytotoxic IC50 measured after 48 hrs relative to control
[8] = Inhibition of RTK/PI3K/AKT/mTOR signaling in human U87 cells assessed as up regulation of solute carrier family 36 member 4 gene expression at cytotoxic IC50 measured after 48 hrs relative to control
[9] = Inhibition of RTK/PI3K/AKT/mTOR signaling in human U87 cells assessed as down regulation of RANBP6 gene expression at cytotoxic IC50 measured after 48 hrs relative to control
[10] = Inhibition of RTK/PI3K/AKT/mTOR signaling in human U87 cells assessed as up regulation of TKT gene expression at cytotoxic IC50 measured after 48 hrs relative to control
[11] = Inhibition of RTK/PI3K/AKT/mTOR signaling in human U87 cells assessed as up regulation of Kruppel like factor 11 gene expression at cytotoxic IC50 measured after 48 hrs relative to control
[12] = Inhibition of RTK/PI3K/AKT/mTOR signaling in human U87 cells assessed as down regulation of KLHL2 gene expression at cytotoxic IC50 measured after 48 hrs relative to control
[13] = Inhibition of RTK/PI3K/AKT/mTOR signaling in human U87 cells assessed as up regulation of cornichon family AMPA receptor auxiliary protein 1 gene expression at cytotoxic IC50 measured after 48 hrs relative to control
[14] = Inhibition of RTK/PI3K/AKT/mTOR signaling in human U87 cells assessed as down regulation of FAM171B gene expression at cytotoxic IC50 measured after 48 hrs relative to control
[15] = Inhibition of RTK/PI3K/AKT/mTOR signaling in human U87 cells assessed as down regulation of ZNF641 gene expression at cytotoxic IC50 measured after 48 hrs relative to control
[16] = Inhibition of RTK/PI3K/AKT/mTOR signaling in human U87 cells assessed as up regulation of myosin light chain 6B gene expression at cytotoxic IC50 measured after 48 hrs relative to control
[17] = Inhibition of RTK/PI3K/AKT/mTOR signaling in human U87 cells assessed as down regulation of RNF20 gene expression at cytotoxic IC50 measured after 48 hrs relative to control
[18] = Inhibition of RTK/PI3K/AKT/mTOR signaling in human U87 cells assessed as up regulation of neuroligin 2 gene expression at cytotoxic IC50 measured after 48 hrs relative to control
[19] = Inhibition of RTK/PI3K/AKT/mTOR signaling in human U87 cells assessed as up regulation of LIPG gene expression at cytotoxic IC50 measured after 48 hrs relative to control
[20] = Inhibition of RTK/PI3K/AKT/mTOR signaling in human U87 cells assessed as down regulation of RTN4 gene expression at cytotoxic IC50 measured after 48 hrs relative to control
[21] = Inhibition of RTK/PI3K/AKT/mTOR signaling in human U87 cells assessed as up regulation of LOC554223 gene expression at cytotoxic IC50 measured after 48 hrs relative to control
[22] = Inhibition of RTK/PI3K/AKT/mTOR signaling in human U87 cells assessed as down regulation of LAMP2 gene expression at cytotoxic IC50 measured after 48 hrs relative to control
[23] = Inhibition of RTK/PI3K/AKT/mTOR signaling in human U87 cells assessed as down regulation of MAIP1 gene expression at cytotoxic IC50 measured after 48 hrs relative to control
[24] = Inhibition of RTK/PI3K/AKT/mTOR signaling in human U87 cells assessed as up regulation of ERCC excision repair 1, endonuclease non-catalytic subunit gene expression at cytotoxic IC50 measured after 48 hrs relative to control
[25] = Inhibition of RTK assessed as Inhibition of RTK/PI3K/AKT/mTOR signaling in human U87 cells assessed as down regulation of mTOR gene expression at cytotoxic IC50 measured after 48 hrs relative to control
[26] = Inhibition of RTK/PI3K/AKT/mTOR signaling in human U87 cells assessed as down regulation of TMEM268 gene expression at cytotoxic IC50 measured after 48 hrs relative to control
[27] = Inhibition of RTK/PI3K/AKT/mTOR signaling in human U87 cells assessed as down regulation of GLYR1 gene expression at cytotoxic IC50 measured after 48 hrs relative to control
[28] = Inhibition of RTK/PI3K/AKT/mTOR signaling in human U87 cells assessed as up regulation of rhophilin Rho GTPase binding protein 2 gene expression at cytotoxic IC50 measured after 48 hrs relative to control
[29] = Inhibition of RTK/PI3K/AKT/mTOR signaling in human U87 cells assessed as down regulation of ARNT2 gene expression at cytotoxic IC50 measured after 48 hrs relative to control
[30] = Inhibition of RTK/PI3K/AKT/mTOR signaling in human U87 cells assessed as down regulation of PRDM4 gene expression at cytotoxic IC50 measured after 48 hrs relative to control
[31] = Inhibition of RTK/PI3K/AKT/mTOR signaling in human U87 cells assessed as up regulation of family with sequence similarity 129 member B gene expression at cytotoxic IC50 measured after 48 hrs relative to control
[32] = Inhibition of RTK/PI3K/AKT/mTOR signaling in human U87 cells assessed as down regulation of PLEKHB2 gene expression at cytotoxic IC50 measured after 48 hrs relative to control

In the case of `CC(=O)C(=NNc1ccccc1C#N)C(C)=O`, the log2FC [1] is reported as -1.41, the log2FC [2] is reported as -1.58 and the log2FC [3] is reported as -0.871. It also gave a log2FC [4] of -1.12, a log2FC [5] of -0.474 and a log2FC [6] of 1.35. For the same compound, the log2FC [7] was -0.933, the log2FC [8] was 1.03 and the log2FC [9] was -0.799. It also gave a log2FC [10] of 0.429, a log2FC [11] of 1.5 and a log2FC [12] of -0.652. For the same compound, the log2FC [13] was 0.651, the log2FC [14] was -1.31 and the log2FC [15] was -0.74. The log2FC [16] was 1.29, the log2FC [17] was -0.499 and the log2FC [18] was 1.03. For the same compound, the log2FC [19] was 1.76, the log2FC [20] was -0.445 and the log2FC [21] was 3.92. It also gave a log2FC [22] of -0.699, a log2FC [23] of -1.04 and a log2FC [24] of 0.924. For the same compound, the log2FC [25] was -1.09, the log2FC [26] was -0.851 and the log2FC [27] was -0.751. For the same compound, the log2FC [28] was 0.865, the log2FC [29] was -1.35 and the log2FC [30] was -0.79. The log2FC [31] was 0.944 and the log2FC [32] was -0.669.
